Experimental data: PMC2614472
No constants are given. Whether binding was seen depends on the method and setting. In cells and extracts the contact can be indirect. A yes stands for co-enrichment or nearness to the bait. Other partners may have been found. Tags and fused reporters may be left off the sequences shown. One block for each binder: values may come before it.

Tests used:
[1] = molecular target: T1, GST-dysbindin-1 (mouse) (mouse) (UniProt Q91WZ8); experiment: affinity purification with mass spectrometry; GST-dysbindin-1 (mouse) on glutathione Sepharose 4B incubated 3 h at 4°C with precleared mouse skeletal muscle homogenate in lysis buffer; specific CBB bands identified by MALDI-TOF-MS; only the target purified
T1 sequence: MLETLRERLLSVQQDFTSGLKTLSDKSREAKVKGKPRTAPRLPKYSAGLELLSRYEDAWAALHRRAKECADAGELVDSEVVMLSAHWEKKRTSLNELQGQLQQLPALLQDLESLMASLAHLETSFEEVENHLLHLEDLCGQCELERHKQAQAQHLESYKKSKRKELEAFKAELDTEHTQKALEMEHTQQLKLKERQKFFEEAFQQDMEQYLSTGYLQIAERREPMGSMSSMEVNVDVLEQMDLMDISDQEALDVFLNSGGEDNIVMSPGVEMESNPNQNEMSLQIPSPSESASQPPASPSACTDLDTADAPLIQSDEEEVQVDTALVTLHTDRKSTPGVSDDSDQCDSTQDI

[2] = molecular target: T1, GST-dysbindin-1 (mouse) (mouse); experiment: affinity purification with mass spectrometry; GST-dysbindin-1 (mouse) on glutathione Sepharose 4B incubated 3 h at 4°C with precleared mouse brain homogenate in lysis buffer; specific CBB bands identified by MALDI-TOF-MS; only the target purified
[3] = molecular target: T2, GST-dysbindin-1 (human, isoform A) (human) (UniProt Q96EV8); experiment: affinity purification with mass spectrometry; GST or GST-dysbindin-1 (human isoform A) on glutathione Sepharose 4B incubated 3 h at 4°C with precleared SH-SY5Y lysate (50 mM Tris-HCl pH 7.5, 150 mM NaCl, 1 mM EDTA, 1% Triton X-100); four washes; SDS-PAGE, CBB bands identified by MALDI-TOF-MS peptide mass fingerprinting; only the target …
T2 sequence: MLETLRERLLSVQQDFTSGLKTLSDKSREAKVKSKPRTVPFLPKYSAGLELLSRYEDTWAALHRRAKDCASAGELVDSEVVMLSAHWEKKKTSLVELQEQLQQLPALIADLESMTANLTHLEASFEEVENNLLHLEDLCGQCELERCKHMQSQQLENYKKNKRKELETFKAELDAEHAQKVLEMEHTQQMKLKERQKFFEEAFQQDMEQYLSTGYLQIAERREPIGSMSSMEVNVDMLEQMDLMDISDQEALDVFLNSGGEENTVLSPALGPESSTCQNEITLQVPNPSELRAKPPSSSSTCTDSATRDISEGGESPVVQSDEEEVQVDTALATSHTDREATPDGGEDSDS

binding [1]: binds
B1: Dapk1 (mouse) (protein, UniProt Q80YE7-2 1-1430)
chain: MTVFRQENVDDYYDTGEELGSGQFAVVKKCREKSTGLQYAAKFIKKRRTKSSRRGVSREDIEREVSILKEIRHPNVITLHEVYENKTDVILILELVAGGELFDFLAEKESLTEEEATEFLKQILSGVYYLHSLQIAHFDLKPENIMLLDRNVPKPRIKIIDFGLAHKIDFGNEFKNIFGTPEFVAPEIVNYEPLGLEADMWSIGVITYILLSGASPFLGDTKQETLANVSAVNYDFEEEFFRNTSTLAKDFIRRLLVKDPKKRMTIQDSLQHPWIKPKDTQQALSRKASAVNMEKFKKFAARKKWKQSVRLISLCQRLSRSFLSRSNMSVARSDDTLDEEDSFVMKAIIHAINDDNVPGLQHLLGSLSSYDVNQPNKHGTPPLLIAAGCGNIQMLQLLIKRGSRIDVQDKGGSNAIYWASRHGHVDTLKFLNENKCPLDVKDKSGETALHVAARYGHADVVQLLCSFGSNPDFQDKEEETPLHCAAWHGYYSVAKALCEVGCNVNIKNREGETPLLTASARGYHDIVECLAEHGADLNASDKDGHIALHLAVRRCQMEVIKTLLGHGSFVDFQDRHGNTPLHVACKDGSAPIVVALCEASCNLDISNKYGRTPLHLAANNGILDVVRYLCLMGANVEALTSDGKTAEDLAKAEQHEHVAGLLARLRKDTHRGLFIQQLRPTQNLQPRIKLKLFGHSGSGKSTLVESLKCGLLRSFFRRRRPRLSSTNSTRFPPSPLAAKPTVSVSINNLYPGCENVSVRSRSMMFEPGLTKGMLEVFVAPSHHLHCSTDDQSTKAIDIQNAYLNGVGDFSVWEFSGNPVYFCCYDYFAANDPTSIHIIVFSLEEPYEIQLNQVIFWLSFLKSLVPVEEPIAFGGKLKNPLRVVLVATHADIMNIPRPAGGEFGYDKDTSLLKEIRNRFGNDLHVSNKLFVLDAGASGSKDIKVLRNHLQEIRSQIVSGCSPMTHLCEKIISTLPSWRKLNGPNQLMSLQQFVYDVQDQLNPLASEDDLRRIAQQLHSTGEINIMQSETVQDVLLLDPRWLCTNVLGKLLSVETPRALHHYRGRYTMEDIQRLVPDSDVEELLQILDAMDICARDLSSGTMVDIPALIKTDSLQRSWADEEDEVMVYGGVRIVPVEHLTPFPCGIFHKVQVNLCRWIHQQSAEGDADIRLWVSGCRIANRGAELLVLLVNHGQGIEVQVRGLETEKIKCCLLLDSVCSTIETVMATTLPGLLTVKHYLSPQQLREHHEPVMVYQPRDFFRAQTLKESSLTNTMGGYKESFSSITCFGCHDVYSQASLGMDIHASDLSLLTRRKLSRLLDPPDPMGKDWCLLAMNLGLPDMVAKHNVNNRASRDFLPSPVHALLQEWTSYPESTVGILISKLRELGRRDAADFLLKASSVFKINLDGNGQEAYASSCNSGTSYNSISSVVSR

binding [2]: binds
B2: Ap3b2 (mouse) (protein, UniProt Q9JME5 1-1082)
chain: MSAAPAYSEDKGGSAGPGEPEYGHDPASGGIFSSDYKRHDDLKEMLDTNKDSLKLEAMKRIVAMIARGKNASDLFPAVVKNVACKNIEVKKLVYVYLVRYAEEQQDLALLSISTFQRGLKDPNQLIRASALRVLSSIRVPIIVPIMMLAIKEAASDMSPYVRKTAAHAIPKLYSLDSDQKDQLIEVIEKLLADKTTLVAGSVVMAFEEVCPERIDLIHKNYRKLCNLLIDVEEWGQVVIISMLTRYARTQFLSPTQNESLLEENPEKAFYGSEEDEAKGPGSEEAATAALPARKPYVMDPDHRLLLRNTKPLLQSRSAAVVMAVAQLYFHLAPKAEVGVIAKALVRLLRSHSEVQYVVLQNVATMSIKRRGMFEPYLKSFYIRSTDPTQIKILKLEVLTNLANETNIPTVLREFQTYIRSMDKDFVAATIQAIGRCATNIGRVRDTCLNGLVQLLSNRDELVVAESVVVIKKLLQMQPAQHGEIIKHLAKLTDNIQVPMARASILWLIGEYCEHVPKIAPDVLRKMAKSFTAEEDIVKLQVINLAAKLYLTNSKQTKLLTQYVLSLAKYDQNYDIRDRARFTRQLIVPSEQGGALSRHAKKLFLAPKPAPILESSFKDRDHFQLGSLSHLLNAKATGYQELPDWPEEAPDPSVRNVEVPEWTKCSNREKRKEKEKPFYSDSEGESGPTESADSEPESESESESKSSSGSGSGESSSESDNEEEDEEKGGGSESEQSEEEDEKKKKTKKKKASEGHREGSSSEEGSDSSSSSESEVTSESEEEQVEPASWRKKTPPGSKSAPVAKEISLLDLEDFTPPSVQPVSPPMVVSTSLAADLEGLTLTDSSLVPSLLSPVSSIGRQELLHRVAGEGLSVDYAFSRQPFSGDPHMVSLHIYFSNNSETPIKGLHVGTPKLPAGISIQEFPEIESLAPGESTTTVMGINFCDSTQAANFQLCTQTRQFYVSIQPPVGELMAPVFMSENEFKKEQGKLTGMNEITEKLTLPDTCRSDHMVVQKVTATANLGRVPCGTSDEYRFAGRTLTSGSLVLLTLDARAAGAAQLTVNSEKMVIGTMLVKDVIQALTQ

binding [1]: binds
B5: Hadhb (mouse) (protein, UniProt Q99JY0 35-475)
chain: SAPAVQTKSKKTLAKPNMKNIVVVEGVRIPFLLSGTSYKDLMPHDLARAALSGLLHRTNIPKDVVDYIIFGTVIQEVKTSNVAREAALGAGFSDKTPAHTVTMACISSNQAMTTAVGLIASGQCDVVVAGGVELMSDVPIRHSRNMRKMMLDLNKAKTLGQRLSLLSKFRLNFLSPELPAVAEFSTNETMGHSADRLAAAFAVSRMEQDEYALRSHSLAKKAQDEGHLSDIVPFKVPGKDTVTKDNGIRPSSLEQMAKLKPAFIKPYGTVTAANSSFLTDGASAMLIMSEDRALAMGYKPKAYLRDFIYVSQDPKDQLLLGPTYATPKVLEKAGLTMNDIDAFEFHEAFSGQILANFKAMDSDWFAQNYMGRKTKVGSPPLEKFNIWGGSLSLGHPFGATGCRLVMAAANRLRKDGGQYALVAACAAGGQGHAMIVEAYPK

More lines, now with the values behind:

B3: adaptor-related protein complex 3, beta 2 subunit (AP3b2) (protein, UniProt Q13367-1 1-1082)
chain: MSAAPAYSEDKGGSAGPGEPEYGHDPASGGIFSSDYKRHDDLKEMLDTNKDSLKLEAMKRIVAMIARGKNASDLFPAVVKNVACKNIEVKKLVYVYLVRYAEEQQDLALLSISTFQRGLKDPNQLIRASALRVLSSIRVPIIVPIMMLAIKEAASDMSPYVRKTAAHAIPKLYSLDSDQKDQLIEVIEKLLADKTTLVAGSVVMAFEEVCPERIDLIHKNYRKLCNLLIDVEEWGQVVIISMLTRYARTQFLSPTQNESLLEENAEKAFYGSEEDEAKGAGSEETAAAAAPSRKPYVMDPDHRLLLRNTKPLLQSRSAAVVMAVAQLYFHLAPKAEVGVIAKALVRLLRSHSEVQYVVLQNVATMSIKRRGMFEPYLKSFYIRSTDPTQIKILKLEVLTNLANETNIPTVLREFQTYIRSMDKDFVAATIQAIGRCATNIGRVRDTCLNGLVQLLSNRDELVVAESVVVIKKLLQMQPAQHGEIIKHLAKLTDNIQVPMARASILWLIGEYCEHVPRIAPDVLRKMAKSFTAEEDIVKLQVINLAAKLYLTNSKQTKLLTQYVLSLAKYDQNYDIRDRARFTRQLIVPSEQGGALSRHAKKLFLAPKPAPVLESSFKDRDHFQLGSLSHLLNAKATGYQELPDWPEEAPDPSVRNVEVPEWTKCSNREKRKEKEKPFYSDSEGESGPTESADSDPESESESDSKSSSESGSGESSSESDNEDQDEDEEKGRGSESEQSEEDGKRKTKKKVPERKGEASSSDEGSDSSSSSSESEMTSESEEEQLEPASWSRKTPPSSKSAPATKEISLLDLEDFTPPSVQPVSPPAIVSTSLAADLEGLTLTDSTLVPSLLSPVSGVGRQELLHRVAGEGLAVDYTFSRQPFSGDPHMVSVHIHFSNSSDTPIKGLHVGTPKLPAGISIQEFPEIESLAPGESATAVMGINFCDSTQAANFQLCTQTRQFYVSIQPPVGELMAPVFMSENEFKKEQGKLMGMNEITEKLMLPDTCRSDHIVVQKVTATANLGRVPCGTSDEYRFAGRTLTGGSLVLLTLDARPAGAAQLTVNSEKMVIGTMLVKDVIQALTQ
binding [3]: binds

B4: Slc25a4 (mouse) (protein, UniProt P48962 1-298)
chain: MGDQALSFLKDFLAGGIAAAVSKTAVAPIERVKLLLQVQHASKQISAEKQYKGIIDCVVRIPKEQGFLSFWRGNLANVIRYFPTQALNFAFKDKYKQIFLGGVDRHKQFWRYFAGNLASGGAAGATSLCFVYPLDFARTRLAADVGKGSSQREFNGLGDCLTKIFKSDGLKGLYQGFSVSVQGIIIYRAAYFGVYDTAKGMLPDPKNVHIIVSWMIAQSVTAVAGLVSYPFDTVRRRMMMQSGRKGADIMYTGTLDCWRKIAKDEGANAFFKGAWSNVLRGMGGAFVLVLYDEIKKYV
binding [1]: binds
